From article PMC9898070
These are yes or no findings as the source states them, for the method shown. Binding seen in cells or lysates may run through a third protein. Some entries that bind do so weakly or less than the wild type. For part of these data: Tags and fused reporters may be left off the sequences shown.

Sequences of proteins named here, by UniProt entry; tags and fusion partners are left off.
UniProt Q16665: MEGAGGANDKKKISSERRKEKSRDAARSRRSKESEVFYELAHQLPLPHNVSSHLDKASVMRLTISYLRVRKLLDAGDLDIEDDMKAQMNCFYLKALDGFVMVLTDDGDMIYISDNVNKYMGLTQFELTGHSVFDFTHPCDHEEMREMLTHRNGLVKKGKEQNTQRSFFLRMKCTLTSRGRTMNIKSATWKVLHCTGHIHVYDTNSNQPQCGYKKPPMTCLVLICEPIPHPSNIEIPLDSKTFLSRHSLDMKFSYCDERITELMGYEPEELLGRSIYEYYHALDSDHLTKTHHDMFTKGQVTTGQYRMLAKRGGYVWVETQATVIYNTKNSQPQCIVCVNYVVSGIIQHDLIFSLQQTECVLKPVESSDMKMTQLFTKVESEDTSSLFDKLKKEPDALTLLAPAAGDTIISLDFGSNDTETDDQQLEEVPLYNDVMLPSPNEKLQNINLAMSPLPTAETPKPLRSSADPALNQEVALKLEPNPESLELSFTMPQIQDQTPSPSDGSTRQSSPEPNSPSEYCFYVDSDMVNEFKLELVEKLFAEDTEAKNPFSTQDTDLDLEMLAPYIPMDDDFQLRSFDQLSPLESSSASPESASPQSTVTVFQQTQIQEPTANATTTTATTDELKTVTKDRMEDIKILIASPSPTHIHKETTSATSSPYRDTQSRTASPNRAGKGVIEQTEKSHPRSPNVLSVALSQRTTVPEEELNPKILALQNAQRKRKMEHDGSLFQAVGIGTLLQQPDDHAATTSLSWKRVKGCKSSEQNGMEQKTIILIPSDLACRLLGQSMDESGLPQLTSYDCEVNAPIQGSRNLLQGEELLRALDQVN

How the values were obtained:
[1] = molecular target: T1, FLAG-tagged human whole L3MBTL3 (human) (UniProt Q96JM7); test: co-IP; 293T cells transfected with HA-HIF-1α and Flag-tagged wild-type L3MBTL3 or deletion mutants; lysates precipitated with anti-Flag (M2) beads
T1 sequence: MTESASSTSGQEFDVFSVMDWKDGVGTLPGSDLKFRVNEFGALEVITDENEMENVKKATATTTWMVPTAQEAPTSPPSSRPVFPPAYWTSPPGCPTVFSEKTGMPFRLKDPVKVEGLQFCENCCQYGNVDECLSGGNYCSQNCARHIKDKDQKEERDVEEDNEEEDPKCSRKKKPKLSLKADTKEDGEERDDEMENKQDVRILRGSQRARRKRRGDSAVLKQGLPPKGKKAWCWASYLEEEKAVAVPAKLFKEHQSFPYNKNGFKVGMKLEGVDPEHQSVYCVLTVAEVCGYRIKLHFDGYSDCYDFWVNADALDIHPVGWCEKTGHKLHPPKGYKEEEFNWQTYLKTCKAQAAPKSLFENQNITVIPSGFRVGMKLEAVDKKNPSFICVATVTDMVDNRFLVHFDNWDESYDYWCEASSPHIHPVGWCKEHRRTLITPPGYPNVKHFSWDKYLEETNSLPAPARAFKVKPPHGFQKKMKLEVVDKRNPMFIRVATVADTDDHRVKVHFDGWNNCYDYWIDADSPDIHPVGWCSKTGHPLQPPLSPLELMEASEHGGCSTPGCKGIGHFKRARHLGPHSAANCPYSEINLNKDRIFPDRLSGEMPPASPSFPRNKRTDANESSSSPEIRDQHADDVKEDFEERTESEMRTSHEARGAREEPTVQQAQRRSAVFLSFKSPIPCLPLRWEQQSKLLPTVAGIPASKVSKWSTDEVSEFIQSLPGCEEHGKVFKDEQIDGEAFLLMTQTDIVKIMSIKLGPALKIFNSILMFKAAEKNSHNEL

[2] = molecular target: T1, FLAG-tagged human whole L3MBTL3 (human); test: co-IP; HepG2 cells transfected with Flag-L3MBTL3 and HA-HIF-1α, normoxia or hypoxia (1% O2) 12 h; lysates precipitated with anti-Flag beads, 6 h at 4 °C
[3] = molecular target: T2, endogenous L3MBTL3 (human (endogenous in HepG2)) (UniProt Q96JM7); test: co-IP; endogenous proteins; hypoxia cultured HepG2 cells, nucleus and cytoplasm separated; precipitated with IgG, anti-L3MBTL3 or anti-HIF-1α antibodies and protein G
T2 sequence: T1 sequence

binding [1]	binding [2]	binding [3]	Substance
binds	binds	–	HA-tagged human whole HIF-1α (from UniProt Q16665 1-826)
–	–	binds	endogenous HIF-1α (from UniProt Q16665 1-826)
